{"source": "PubChem BioAssay AID540256", "about": "(National Center for Advancing Translational Sciences (NCATS), 2011)", "note": "Screen size: about 300,000 compounds; about 3,700 (1.2%) were called active. Inconclusive results, whose numbers are uncertain, are shown with a selection of clear calls. Calls come from the whole dose curve; tested in HEK293 cells. A potency beside an inconclusive call is a rough fit, not a confirmed value. Potency is the fitted concentration of half-maximal effect."}
{"assay": "qHTS for Inhibitors of binding or entry into cells for Lassa Virus; note: nearly all actives have a fitted effect of over 50% in size", "details": "Lassa virus pseudotype entry inhibition, cell reporter; series mostly up to 37.9 µM"}
{"smiles": "O=C(c1cccn(Cc2ccc(Cl)c(Cl)c2)c1=O)N1CCOCC1", "Potency": "inactive"}
{"smiles": "Cc1ccc(Cl)cc1N1CCN(C(=O)C2CCN(S(=O)(=O)c3c(C)nn(C)c3C)CC2)CC1", "Potency": "inconclusive: 35.5 µM [inhibitor, single point]"}
{"smiles": "COc1ccc(NC(=O)N2CCCCC2)cc1", "Potency": "inactive"}
{"smiles": "CCOC(=O)N1CCN(Cc2nc3cc(NC(=O)C(C)C)ccc3n2C)CC1", "Potency": "inconclusive: 0.794 µM [inhibitor, single point]"}
{"smiles": "Cc1ncoc1C(=O)N1CCc2c([nH]c3ccccc23)C1C1CCCCC1", "note": "(stereo not drawn)", "Potency": "inconclusive: 8.91 µM [inhibitor, partial curve, poor fit]"}
{"smiles": "COC(=O)C1=C(N)OC2=C(C(=O)CC(C)(C)C2)C1c1cc2c(cc1Cl)OCO2", "note": "(stereo not drawn)", "Potency": "inconclusive: 3.16 µM [activator, single point]"}
{"smiles": "CCOC(=O)c1cnc(-c2ccccc2)nc1N(C)C", "Potency": "inconclusive: 14.6 µM [activator, partial curve]"}
{"smiles": "CCOc1ccccc1-n1c(=S)sc2c(=O)n(-c3ccc(F)cc3)c(SCC(=O)O)nc21", "Potency": "inconclusive: 7.08 µM [activator, partial curve, poor fit]"}
{"smiles": "CC(C)CCNC(=O)c1ccc(Cl)c(NC(=O)Cc2ccccc2)c1", "Potency": "inconclusive: 16.4 µM [inhibitor, partial curve, poor fit]"}
{"smiles": "CCOC(=O)CC(=O)CSc1nc2nc(C)cc(C)n2n1", "Potency": "inconclusive: 2.59 µM [activator, full curve, poor fit]"}
{"smiles": "Cc1[nH]c2ccccc2c1C(=O)C(=O)N1c2ccccc2CC1C", "note": "(stereo not drawn)", "Potency": "inactive"}
{"smiles": "Cc1ccc(NC(=O)c2ccsc2)cc1NS(C)(=O)=O", "Potency": "inconclusive: 1 µM [inhibitor, single point]"}
{"smiles": "COc1ccc(OC)c(NC(=O)CSc2ccc3nnc(-c4cccnc4)n3n2)c1", "Potency": "inactive"}
{"smiles": "COc1ccc(Cl)cc1NC(=O)c1ccc2nc(Cc3ccccc3)oc2c1", "Potency": "inactive"}
{"smiles": "O=C(NNC(=O)C1C2CCC(C2)C1C(=O)O)c1ccc(Br)o1", "note": "(stereo not drawn)", "Potency": "inactive"}
{"smiles": "Cc1ccc(NC(=O)c2cc(S(=O)(=O)NCCC3=CCCCC3)ccc2F)cc1F", "Potency": "inconclusive: 7.94 µM [inhibitor, partial curve, poor fit]"}
{"smiles": "N#Cc1ccc(Oc2nc(C#N)cc(-c3ccccc3)n2)cc1", "Potency": "inactive"}
{"smiles": "Cc1c(C(c2ccc(C(=O)O)cc2)c2c(C)n(C)n(-c3ccccc3)c2=O)c(=O)n(-c2ccccc2)n1C", "Potency": "inconclusive: 0.708 µM [inhibitor, single point]"}
{"smiles": "CCN(c1cccc(C)c1)S(=O)(=O)c1ccc2c3c(cccc13)C(=O)N2", "Potency": "inconclusive: 2.24 µM [inhibitor, partial curve, poor fit]"}
{"smiles": "Cc1csc(NC(=O)C2CCN(S(=O)(=O)c3cccs3)CC2)n1", "Potency": "inactive"}
{"smiles": "Cc1ccc(-n2ncc3c(N4CCCCCC4)ncnc32)cc1", "Potency": "inconclusive: 1.12 µM [inhibitor, full curve, poor fit]"}
{"smiles": "O=C(Nc1ccccc1N1CCCC1)c1cc2ccccc2o1", "Potency": "inactive"}
{"smiles": "O=C(COc1ccccc1)NCc1ccc2c(c1)CCN2C(=O)c1ccc(F)cc1", "Potency": "inconclusive: 35.5 µM [inhibitor, single point]"}
{"smiles": "Cc1ccc(Cn2c(=O)c3cccnc3n(CC(=O)Nc3cccc(C(F)(F)F)c3)c2=O)cc1", "Potency": "inconclusive: 14.1 µM [inhibitor, single point]"}
{"smiles": "N#Cc1nc(-c2ccc(OCc3ccc(Cl)cc3)cc2)oc1N1CCOCC1", "Potency": "inactive"}
{"smiles": "Cc1cc(OCC(=O)Nc2ccc(-c3nc4cc(Cl)ccc4o3)cc2)cc(C)c1Cl", "Potency": "inconclusive: 5.62 µM [inhibitor, single point]"}
{"smiles": "COc1cccc(/C=N/Nc2cc(C)nc(-c3ccccc3O)n2)c1O", "Potency": "inconclusive: 7.08 µM [inhibitor, full curve, poor fit]"}
{"smiles": "Cc1c(Cl)cccc1NC(=O)CSc1ncnc2c1sc1ccccc12", "Potency": "inconclusive: 7.08 µM [activator, full curve, poor fit]"}
{"smiles": "Cc1cc(=O)oc(C)c1C(=O)NCCCN1CCN(c2ccccc2F)CC1", "Potency": "inactive"}
{"smiles": "Cc1ccc(/C=N/NC(=O)C(O)c2ccccc2)o1", "note": "(stereo not drawn)", "Potency": "inactive"}
{"smiles": "Cc1cc(C(=O)COC(=O)C2CC2)c(C)n1-c1ccc(F)cc1", "Potency": "inconclusive: 22.4 µM [inhibitor, partial curve, poor fit]"}
{"smiles": "Cc1cccc(CNC(=O)c2oc3c(c2C)-c2nn(Cc4ccccc4Cl)cc2CC3)c1", "Potency": "inactive"}
{"smiles": "Cc1cc(C)cc(C(=O)OCC(=O)NCCNC(=O)COC(=O)c2cc(C)cc(C)c2)c1", "Potency": "inconclusive: 10 µM [activator, partial curve, poor fit]"}
{"smiles": "COc1ccc(/C=C(/C#N)S(=O)(=O)c2ccc(C)cc2)cc1", "Potency": "inconclusive: 4.11 µM [activator, single point]"}
{"smiles": "CN(C(=O)C1CCCN(c2ncnc3c2nc2n3CCCCC2)C1)c1ccccc1F", "note": "(stereo not drawn)", "Potency": "inconclusive: 11.2 µM [inhibitor, partial curve, poor fit]"}
{"smiles": "Cc1ccc(-n2ncc3c(NCCCOC(C)C)ncnc32)c(C)c1", "Potency": "inconclusive: 25.1 µM [inhibitor, single point]"}
{"smiles": "CC(=O)C(Cc1ccccc1)NC(=O)CN1CCc2ccccc2C1", "note": "(stereo not drawn)", "Potency": "inconclusive: 35.5 µM [inhibitor, single point]"}
{"smiles": "O=C(Nc1cccc2c1CCCC2)c1ccccc1Br", "Potency": "inconclusive: 2.82 µM [activator, single point]"}
{"smiles": "Fc1ccc(C2c3[nH]c4ccccc4c3CCN2CCCn2cccn2)cc1", "note": "(stereo not drawn)", "Potency": "inconclusive: 10 µM [inhibitor, partial curve, poor fit]"}
{"smiles": "O=C(Nc1ccn(Cc2cccc3ccccc23)n1)c1cccnc1", "Potency": "inconclusive: 2.24 µM [inhibitor, partial curve, poor fit]"}
{"smiles": "Cc1c(NC(=O)Cc2ccccc2)cccc1C(=O)NN1C(=O)c2ccccc2C1=O", "Potency": "inconclusive: 15.8 µM [activator, partial curve, poor fit]"}
{"smiles": "Cc1ccc(C(=O)N2CCC(C)CC2)cc1C", "Potency": "inactive"}
{"smiles": "Cc1ccc2c(c1)C1CN(C)CCC1N2C(=S)Nc1ccc(Cl)cc1Cl", "note": "(stereo not drawn)", "Potency": "inconclusive: 35.5 µM [inhibitor, single point]"}
{"smiles": "Cc1ccccc1OCc1nnc(SCC(=O)Nc2ccc3nc(SCC(=O)NC(C)(C)C)sc3c2)n1C", "Potency": "inconclusive: 10 µM [inhibitor, partial curve, poor fit]"}
{"smiles": "c1cc2c(cc1C1CCCN1)OCCCO2", "note": "(stereo not drawn)", "Potency": "inactive"}
{"smiles": "CC1(c2ccc(Cl)cc2Cl)NC(=O)N(CC(=O)N2CCN(C(=O)c3ccco3)CC2)C1=O", "note": "(stereo not drawn)", "Potency": "inactive"}
{"smiles": "CCN(C(=O)c1cc2ccccc2oc1=O)c1ccccc1", "Potency": "inconclusive: 8.91 µM [activator, partial curve, poor fit]"}
{"smiles": "Cn1cc(S(=O)(=O)N2CCCCCC2)cc1C(=O)N1CCN(c2ccc(F)cc2)CC1", "Potency": "inactive"}
{"smiles": "CCOc1cc(/C=C/C(=O)c2ccc(O)cc2)ccc1OCC(=O)N(C)C", "Potency": "inconclusive: 7.08 µM [inhibitor, full curve, poor fit]"}
{"smiles": "Cc1oc(C(C)(C)C)cc1C(=O)NC(Cc1ccccc1)C(=O)O", "note": "(stereo not drawn)", "Potency": "inconclusive: 7.08 µM [inhibitor, partial curve, poor fit]"}
{"smiles": "Cc1ccc(C(=O)CSc2nnc3ccccn23)c(C)c1", "Potency": "inconclusive: 20 µM [inhibitor, single point]"}
{"smiles": "c1ccc(-n2ncc3c(NC4CCCC4)ncnc32)cc1", "Potency": "inconclusive: 15.8 µM [inhibitor, single point]"}
{"smiles": "Cc1cccc(C(=O)Nc2nnc(SCC(=O)NC3CC3)s2)c1", "Potency": "inactive"}
{"smiles": "O=c1cc(CN2CCN(c3ccccc3)CC2)nc2scc(-c3ccccc3)n12", "Potency": "inconclusive: 35.5 µM [inhibitor, partial curve, poor fit]"}
{"smiles": "O=C(Nc1ccc(-c2cn3ccsc3n2)cc1)C1COc2ccccc2O1", "note": "(stereo not drawn)", "Potency": "inactive"}
{"smiles": "CCOc1ccc(-c2cc(OC(=O)c3ccc(F)cc3)c3c(C)oc(C)c3c(=O)c2)cc1", "Potency": "inconclusive: 2.24 µM [inhibitor, single point]"}
{"smiles": "COCCN1C=C(C(=O)OC)C(c2ccccc2C(F)(F)F)C(C(=O)OC)=C1", "Potency": "inconclusive: 10 µM [inhibitor, partial curve, poor fit]"}
{"smiles": "CCN1CCN(c2cc(C)c3cc(NC(=S)N4CCCC4)ccc3n2)CC1", "Potency": "inconclusive: 35.5 µM [inhibitor, single point]"}
{"smiles": "O=C(CC1Sc2ccc(C(F)(F)F)cc2NC1=O)Nc1ccc(Cl)c(C(F)(F)F)c1", "note": "(stereo not drawn)", "Potency": "inactive"}
{"smiles": "Cc1ccc(Nc2ncnc3c2nnn3Cc2ccccc2)cc1", "Potency": "inactive"}
{"smiles": "NC(=S)N/N=C1\\CC(c2ccc3c(c2)OCCCO3)Oc2ccc(F)cc21", "note": "(stereo not drawn)", "Potency": "inconclusive: 3.16 µM [inhibitor, partial curve]"}
{"smiles": "CCN(Cc1ccccc1)C(=O)c1cc(COc2c(F)cccc2F)on1", "Potency": "inconclusive: 10 µM [inhibitor, partial curve, poor fit]"}
{"smiles": "CCC(=O)N1CCc2cc(S(=O)(=O)NC(Cc3ccccc3)C(=O)Nc3ccc(C)cc3)ccc21", "note": "(stereo not drawn)", "Potency": "inactive"}
{"smiles": "CCOC(=O)C1CCCN(c2ncnc3c2cnn3-c2ccc(Cl)cc2)C1", "note": "(stereo not drawn)", "Potency": "inconclusive: 29.1 µM [inhibitor, single point]"}
{"smiles": "COC(=O)C(Cc1cccc(C)n1)(c1ccccc1)c1ccccc1", "Potency": "inactive"}
{"smiles": "CCOC(=O)C(C(C)=O)C(c1ccc(OC)cc1)C(C(C)=O)C(=O)OCC", "note": "(stereo not drawn)", "Potency": "inactive"}
{"smiles": "O=C(CSc1ccc(-c2ccco2)nn1)Nc1ccccc1", "Potency": "inconclusive: 1.26 µM [inhibitor, single point]"}
{"smiles": "CC(C)C(=O)N1CCN(c2nc(-c3ccccc3)c3c(c2C#N)CCCC3)CC1", "Potency": "inconclusive: 1.83 µM [inhibitor, full curve, poor fit]"}
